Source: PMC7449961
No constants are given. Whether binding was seen depends on the method and setting. Some binding calls cover weakened binding; strength is not graded here.

By UniProt entry, the sequences of proteins in these tests, tags left out. Residues count along the entry.
UniProt Q03172, residues 189-547: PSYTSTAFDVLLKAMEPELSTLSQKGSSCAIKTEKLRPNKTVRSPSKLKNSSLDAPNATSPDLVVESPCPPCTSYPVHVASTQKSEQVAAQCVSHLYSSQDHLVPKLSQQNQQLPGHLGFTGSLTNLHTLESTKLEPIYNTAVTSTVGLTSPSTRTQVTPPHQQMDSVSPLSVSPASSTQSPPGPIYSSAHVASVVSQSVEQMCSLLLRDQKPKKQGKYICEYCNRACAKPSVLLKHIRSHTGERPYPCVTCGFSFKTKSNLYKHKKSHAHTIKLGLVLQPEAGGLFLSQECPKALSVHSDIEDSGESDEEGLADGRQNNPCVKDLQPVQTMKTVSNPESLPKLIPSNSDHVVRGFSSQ
UniProt Q08122, residues 118-296: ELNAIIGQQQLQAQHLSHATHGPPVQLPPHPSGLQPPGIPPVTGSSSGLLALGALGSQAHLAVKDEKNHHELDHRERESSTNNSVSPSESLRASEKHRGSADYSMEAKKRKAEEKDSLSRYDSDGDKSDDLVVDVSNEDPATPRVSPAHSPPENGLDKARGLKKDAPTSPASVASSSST
UniProt P70297, residues 367-523: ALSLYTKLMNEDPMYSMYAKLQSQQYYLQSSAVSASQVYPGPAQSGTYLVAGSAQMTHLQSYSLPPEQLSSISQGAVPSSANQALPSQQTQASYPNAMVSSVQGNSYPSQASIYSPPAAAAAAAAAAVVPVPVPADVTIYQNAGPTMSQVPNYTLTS
UniProt Q9WUU8, residues 259-554: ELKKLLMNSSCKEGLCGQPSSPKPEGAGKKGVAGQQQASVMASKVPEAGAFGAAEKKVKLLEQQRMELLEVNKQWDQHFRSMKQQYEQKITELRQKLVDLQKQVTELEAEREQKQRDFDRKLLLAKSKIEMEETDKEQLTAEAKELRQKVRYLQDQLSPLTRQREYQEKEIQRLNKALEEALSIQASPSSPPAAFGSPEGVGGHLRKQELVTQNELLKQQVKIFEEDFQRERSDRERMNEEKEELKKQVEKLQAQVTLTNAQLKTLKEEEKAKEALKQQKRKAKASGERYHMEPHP

B1: Group specific component (mouse, two-hybrid prey) (domain or fragment, UniProt P21614 16-240)
chain: ALERGRDYEKDKVCNELAMLGKEDFRSLSLILYSRKFSSSTFEQVNQLVKEVVSLTEECCAEGADPTCYDTRTSELSVKSCESDAPFPVHPGTPECCTKEGLERKLCMAALSHQPQEFPTYVEPTNDEICEAFRRDPKGFADQFLYEYSSNYGQAPLPLLVAYTKNYLSMVGSCCTSANPTVCFVKERLQMKHLSLLTTMSNRVCSQYAAYGKEKSRLSHLIKLA
B2: Forkhead box a2 (mouse, two-hybrid prey) (domain or fragment, UniProt P35583 5-176)
chain: VKMEGHEPSDWSSYYAEPEGYSSVSNMNAGLGMNGMNTYMSMSAAAMGGGSGNMSAGSMNMSSYVGAGMSPSLAGMSPGAGAMAGMSGSAGAAGVAGMGPHLSPSLSPLGGQAAGAMGGLAPYANMNSMSPMYGQAGLSRARDPKTYRRSYTHAKPPYSYISLITMAIQQSP
B3: Aryl hydrocarbon receptor nuclear translocator-like 2 (domain or fragment, UniProt Q2VPD4-1 259-579)
chain: LRSWPLNVVGMEKESGGGKDSGPLTCLVAMGRLHPYIVPQKSGKINVRPAEFITRFAMNGKFVYVDQRATAILGYLPQELLGTSCYEYFHQDDHSSLTDKHKAVLQSKEKILTDSYKFRVKDGAFVTLKSEWFSFTNPWTKELEYIVSVNTLVLGRSETRLSLLHCGGSSQSSEDSFRQSCINVPGVSTGTVLGAGSIGTDIANEVLSLQRLHSSSPEDASPSEEVRDDCSVNGGNAYGPASTREPFAVSPSETEVLEAARQHQSTEPAHPHGPLPGDSAQLGFDVLCDSDSIDMAAFMNYLEAEGGLGDPGDFSDIQWAL
B4: Cramped-like, cramp1L (domain or fragment, UniProt Q6PG95 654-897)
chain: EHLSSQGQPATRPSKEVPASQLAQQLREEGWSLQTSESLTLAEVYLMMGKPTKLQLEYDWLAVLGPESQAPTAQGQTALSRSSPSALHQQRLLSCLLRLISTEVHPKMAFEANTASTASVRPTQEEQSTTPPGKVVTINSRSPRCSRNPSTLRSNKTFPSASAPCSPGLRNPPRPLLVAGPSSTGSSDSDGGLFAVPTTLPPNSRHGKLFSPSKEAELTFRQHLDSISIQSDFFSPKPKKLRKR
B5: ski sarcoma viral oncogene homolog (domain or fragment, UniProt Q60698 591-725)
chain: LRVAKKEKLREATEAKRNLRKEIERLRAENEKKMKEANESRVRLKRELEQARQVRVCDKGCEAGRLRAKYSAQVEDLQAKLQHAEADREQLRADLLREREAREHLEKVVRELQEQLRPRPRPEHPGGESNAELGP
B6: Tho complex 1 (mouse, two-hybrid prey) (domain or fragment, UniProt Q8R3N6 338-532)
chain: FKSSNYVLTDEQSLWIEDTTKSVYQLLSENPPDGERFSKMVEHILNTEENWNSWKNEGCPSFVKERASDTKPTRVVRKRAAPEDFLGKGPNKKILIGNEELTRLWNLCPDNMEACKSETREYMPTLEEFFEEAIEQADPENMVESEYKAVNNSNYGWRALRLLARRSPHFFQPTNQQFKSLPEYLENMVIKLAKE
B7: Intersectin 1 (domain or fragment, UniProt Q9Z0R4-1 65-582)
chain: ADMNNDGRMDQVEFSIAMKLIKLKLQGYQLPSTLPPVMKQQPVAISSAPAFGIGGIASMPPLTAVAPVPMGSIPVVGMSPPLVSSVPPAAVPPLANGAPPVIQPLPAFAHPAATLPKSSSFSRSGPGSQLNTKLQKAQSFDVASAPPAAEWAVPQSSRLKYRQLFNSHDKTMSGHLTGPQARTILMQSSLPQAQLASIWNLSDIDQDGKLTAEEFILAMHLIDVAMSGQPLPPVLPPEYIPPSFRRVRSGSGMSVISSSSVDQRLPEEPSSEDEQQPEKKLPVTFEDKKRENFERGSVELEKRRQALLEQQRKEQERLAQLERAEQERKERERQEQERKRQLELEKQLEKQRELERQREEERRKEIERREAAKRELERQRQLEWERNRRQELLNQRNKEQEGTVVLKARRKTLEFELEALNDKKHQLEGKLQDIRCRLATQRQEIESTNKSRELRIAEITHLQQQLQESQQMLGRLIPEKQILSDQLKQVQQNSLHRDSLLTLKRALEAKELARQQLR
B8: FCHSD2/Carom/FCH and double SH3 domains 2/F-BAR And Double SH3 Domains Protein 2 (domain or fragment, UniProt Q3USJ8-1 249-554)
chain: LIAFSRTELETCQAIQNTFQFLLENSSKVVRDYNLQLFLQENAVFHKPQPFQFQPCDSDTSRQLESETGTTEEHSLNKEARKWATRVAREHKNIVHQQRVLNELECHGVALSEQSRAELEQKIDEARESIRKAEIIKLKAEARLDLLKQIGVSVDTWLKSAMNQVMEELENERWARPPAVTSNGTLHSLNADAEREEGEEFEDNMDVFDDSSSSPSGTLRNYPLTCKVVYSYKASQPDELTIEEHEVLEVIEDGDMEDWVKARNKVGQVGYVPEKYLQFPTSNSLLSMLQSLAALDSRSHTSSNST

The molecules below were run against T1, mouse GON4L PAH domains (1,458–1,857 a.a.) (mouse) (UniProt Q9DB00) (assay: two-hybrid; library screen by Myriad Genetics; LexA and Gal4 system; mouse Gon4l fragments as bait against prey libraries from murine embryos, B lymphocytes and cardiac myocytes; bait and prey plasmids co-transformed into a naïve yeast strain to recapitulate the interaction).
T1 sequence: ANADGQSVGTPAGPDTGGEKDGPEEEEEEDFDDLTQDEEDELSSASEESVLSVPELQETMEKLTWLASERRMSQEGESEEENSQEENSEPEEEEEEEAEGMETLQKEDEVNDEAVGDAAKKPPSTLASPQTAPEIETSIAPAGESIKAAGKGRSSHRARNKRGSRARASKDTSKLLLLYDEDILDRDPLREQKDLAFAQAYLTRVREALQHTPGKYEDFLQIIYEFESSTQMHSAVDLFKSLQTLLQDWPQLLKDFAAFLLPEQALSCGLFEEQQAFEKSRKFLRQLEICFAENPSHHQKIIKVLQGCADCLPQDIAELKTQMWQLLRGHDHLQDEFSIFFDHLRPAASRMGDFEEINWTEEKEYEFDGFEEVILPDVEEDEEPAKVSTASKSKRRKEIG

| Molecule | binding |
| --- | --- |
| Human Immunodeficiency Virus Type I Enhancer Binding Protein 1 (from UniProt Q03172 189-547) (domain or fragment) | binds |
| Transducin-Like Enhancer Of Split 3, Homolog Of Drosophila E (from UniProt Q08122-3 118-296) (domain or fragment) | binds |
| Signal-Transducing Adaptor Molecule 1 (from UniProt P70297 367-523) (domain or fragment) | binds |
| Protein phosphatase 3, catalytic subunit, beta isoform (from UniProt P48453-1 410-525) (domain or fragment) | binds |
| Bromodomain containing 4 (mouse, two-hybrid prey) (from UniProt Q9ESU6-1 821-1006) (domain or fragment) | binds |
| TNIP1 (printed name: TNFAIP3 Interacting Protein 3), A20-binding inhibitor of NF-κB activation (ABIN-3)) (from UniProt Q9WUU8 259-554) (domain or fragment) | binds |
| B1 | binds |
| B2 | binds |
| B3 | binds |
| B4 | binds |
| B5 | binds |
| B6 | binds |
| B7 | binds |
| B8 | binds |
